{"source": "PubChem BioAssay AID743454 (Peter MacCallum Cancer Centre, 2014)", "assay": "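Knock-downs lowering viability or raising caspase 3/7 activity in vorinostat-treated resistant cells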 (primary screen)", "cells": "human HCT116-VR colon cancer cells, selected for vorinostat resistance", "reagents": "siRNA pool against human genes, 40 nM siRNA pool", "timing": "vorinostat for 24 h, read-out about 72 h after transfection", "conditions": "vorinostat at 2.5 µM final", "measured": "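Two measures, CellTiter-Fluor viability and luminescent caspase 3/7 activity, each as fold change against same-plate mock wells, mean of duplicates, then screen-wide robust z-score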", "reading the numbers": "viability robust z-score: higher = more viable cells than screen typical; caspase robust z-score: higher = more caspase 3/7 activity than screen typical", "call rule": "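a knock-down is a hit when classed RV1 or RV2 for lowered viability, or CA1 or CA2 for caspase activation; those lethal without drug were dropped; hits were retested singly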", "note": "This is a random part of about 18,000 reagents. Over the whole deposit, 450 (2.5%) got an active call. 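Single biological run; no consistent viability z cut-off exists, so the class columns, not z-scores, define the calls.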 Reagents against one gene are numbered here."}
{"Gene": "ZPLD1", "reagent": 1, "viability hit class": "no change", "caspase hit class": "no change", "viability robust z-score": -0.71, "caspase robust z-score": -0.97, "Call": "inactive"}
{"Gene": "TSLIG1", "reagent": 1, "viability hit class": "no change", "caspase hit class": "no change", "viability robust z-score": -0.77, "caspase robust z-score": -0.98, "Call": "inactive"}
{"Gene": "PARP8", "reagent": 1, "viability hit class": "no change", "caspase hit class": "no change", "viability robust z-score": -0.3, "caspase robust z-score": 1.35, "Call": "inactive"}
{"Gene": "ELMOD1", "reagent": 1, "viability hit class": "no change", "caspase hit class": "no change", "viability robust z-score": 0.58, "caspase robust z-score": 2.42, "Call": "inactive"}
{"Gene": "ELMOD1", "reagent": 2, "viability hit class": "no change", "caspase hit class": "no change", "viability robust z-score": -1.6, "caspase robust z-score": 4.46, "Call": "inactive"}
{"Gene": "ARVCF", "reagent": 1, "viability hit class": "no change", "caspase hit class": "no change", "viability robust z-score": -0.22, "caspase robust z-score": 2.4, "Call": "inactive"}
{"Gene": "CCDC60", "reagent": 1, "viability hit class": "no change", "caspase hit class": "no change", "viability robust z-score": 0.2, "caspase robust z-score": 0.05, "Call": "inactive"}
{"Gene": "NDUFV2", "reagent": 1, "viability hit class": "no change", "caspase hit class": "no change", "viability robust z-score": -1.91, "caspase robust z-score": -0.38, "Call": "inactive"}
{"Gene": "ANKRD10", "reagent": 1, "viability hit class": "no change", "caspase hit class": "no change", "viability robust z-score": -0.24, "caspase robust z-score": -0.06, "Call": "inactive"}
{"Gene": "DDX47", "reagent": 1, "viability hit class": "no change", "caspase hit class": "no change", "viability robust z-score": -1.44, "caspase robust z-score": -0.46, "Call": "inactive"}
{"Gene": "CDK2AP2", "reagent": 1, "viability hit class": "no change", "caspase hit class": "no change", "viability robust z-score": -0.36, "caspase robust z-score": -0.16, "Call": "inactive"}
{"Gene": "RPL19P9", "reagent": 1, "viability hit class": "no change", "caspase hit class": "no change", "viability robust z-score": -4.71, "caspase robust z-score": -0.76, "Call": "inactive"}
{"Gene": "PEX16", "reagent": 1, "viability hit class": "no change", "caspase hit class": "no change", "viability robust z-score": -0.44, "caspase robust z-score": 1.03, "Call": "inactive"}
{"Gene": "IFNA6", "reagent": 1, "viability hit class": "no change", "caspase hit class": "no change", "viability robust z-score": -1.22, "caspase robust z-score": -0.17, "Call": "inactive"}
